Measured values published in PubChem BioAssay AID192 (DTP/NCI, 2004).
The list does not hold the whole screen: it gathers tests that were run many times, whatever their T/C, doses with no T/C, and many T/C values between a quarter and a half above the control. Further doses and runs are listed elsewhere. T/C: endpoint of the treated group in % of that of the vehicle group. Some doses have a count of surviving animals in place of a T/C: the source files T/C as zero there, which appears to mark a toxic dose or a test without result, not a measured value. Some doses without a T/C left all or most animals alive at the check, yet need not have been tolerated: the source hardly ever lists a survival T/C far under the control, and the zero likely stands for such cases as well. Counts of survivors are from the toxicity check (mostly the fifth day) where no day follows; animals may have died later. Schedules are NCI's codes, taken here to give the interval after Q, in days (D) or hours (H), and the number of doses after X. Some doses were run more than once; the values are given in rising order. Where survival is the endpoint, this PubChem deposit counts one and a half times the control or more as active, and values a quarter to a half above the control carry no call in these data; other NCI protocols may use other cut-offs. Some T/C values are followed by the survivors on the day toxicity was checked, most often the fifth; without a count, all were alive then.

Tested on: BDF1 mice, B16 melanoma ip, median survival T/C
Assay: NCI In Vivo Anticancer Drug Screen. Data for tumor model B16 Melanoma (intraperitoneal) in B6D2F1 (BDF1) mice
Details: T/C endpoint: median survival time, higher T/C = longer survival
Method: The antitumor activity of compounds was measured in mice bearing transplantable tumors. Survival or tumor size were measured and the results are expressed as the measurement made in the treated group (T) divided by the measurement made in the vehicle treated control group (C). The tumor model used in this assay is B16 Melanoma (intraperitoneal) in B6D2F1 (BDF1) mice

[1] = dose: 25.0 mg/kg/injection, schedule: Q01DX009 (ip), vehicle: Klucel (hydroxypropylcellulose) (HPC)
[2] = dose: 50.0 mg/kg/injection, schedule: Q01DX009 (ip), vehicle: Klucel (hydroxypropylcellulose) (HPC)
[3] = dose: 100.0 mg/kg/injection, schedule: Q01DX009 (ip), vehicle: Klucel (hydroxypropylcellulose) (HPC)
[4] = dose: 200.0 mg/kg/injection, schedule: Q01DX009 (ip), vehicle: Klucel (hydroxypropylcellulose) (HPC)
[5] = dose: 400.0 mg/kg/injection, schedule: Q01DX009 (ip), vehicle: saline with Tween-80
[6] = dose: 400.0 mg/kg/injection, schedule: Q01DX009 (ip), vehicle: saline
[7] = dose: 12.5 mg/kg/injection, schedule: Q01DX009 (ip), vehicle: Klucel (hydroxypropylcellulose) (HPC)
[8] = dose: 400.0 mg/kg/injection, schedule: Q01DX009 (ip), vehicle: Klucel (hydroxypropylcellulose) (HPC)
[9] = dose: 100.0 mg/kg/injection, schedule: Q01DX009 (ip), vehicle: saline with Tween-80
[10] = dose: 200.0 mg/kg/injection, schedule: Q01DX009 (ip), vehicle: saline with Tween-80
[11] = dose: 6.0 mg/kg/injection, schedule: Q01DX009 (ip), vehicle: Klucel (hydroxypropylcellulose) (HPC)
[12] = dose: 12.0 mg/kg/injection, schedule: Q01DX009 (ip), vehicle: Klucel (hydroxypropylcellulose) (HPC)
[13] = dose: 6.25 mg/kg/injection, schedule: Q01DX009 (ip), vehicle: Klucel (hydroxypropylcellulose) (HPC)

In the case of `COc1cc2c(cc1OC)C(C#N)C2` (stereo unspecified), the survivor count [1] is reported as 5 of 10, the survivor count [2] is reported as 6 of 10 and the survivor count [3] is reported as 0 of 10. The survivor count [4] was 0 of 10.

With `CCOC(=O)CC(SP(=S)(OC)OC)C(=O)OCC` (stereo unspecified) the survivor count [5] was 0 of 10 and 4 of 10 and the survivor count [6] was 5 of 10.

For `C=CCN1C(=O)C=CC1=O`, the survivor count (dose: 3.0 mg/kg/injection, schedule: Q01DX009 (ip), vehicle: saline) was 10 of 10 and the survivor count (dose: 6.0 mg/kg/injection, schedule: Q01DX009 (ip), vehicle: saline) was 6 of 10.

With `CCCCCCCC/C=C\CCCCCCCCN1CC(C(=O)[O][Pb]([CH2]C)([CH2]C)[CH2]C)CC1=O` (stereo unspecified) the survivor count (dose: 12.0 mg/kg/injection, schedule: Q01DX009 (ip), vehicle: saline with Tween-80) was 9 of 10.

`COc1ccccc1NC(=O)Nc1cccc(C(C)=O)c1` was tested, and the survivor count [5] was 9 of 9.

With `CCN(CC)C(=S)SSC(=S)N(CC)CC` the survivor count [7] was 8 of 10, the survivor count [2] was 10 of 10 and the survivor count [3] was 10 of 10. For the same compound, the survivor count [4] was 5 of 10 and the survivor count [8] was 8 of 10.

With `CCCCCCCCCCCCCCCCCCNC(=O)Oc1ccc(Cl)c(C)c1` the survivor count (dose: 400.0 mg/kg/injection, schedule: Q04DX003 (ip), vehicle: gum acacia) was 10 of 10.

With `CCCCCCCCCCCCc1ccc(CS)cc1` the survivor count [6] was 9 of 10.

With `O=C(Nc1ccccc1)c1ccc(C(F)(F)F)cc1O` the survivor count [3] was 10 of 10 and the survivor count [4] was 9 of 10.

For `[Cl][Pt+2][Cl].[NH-]CC1(C[NH-])CCCC1`, the T/C (dose: 0.25 mg/kg/injection, schedule: Q01DX009 (ip), vehicle: saline) was 125 % of control [9 of 10 alive on day 10].

For `NC(=O)NOCC1NC(=O)C(CONC(N)=O)NC1=O` (stereo unspecified), the survivor count (dose: 100.0 mg/kg/injection, schedule: Q04DX003 (ip), vehicle: saline) was 10 of 10.

In the case of `CCC(C)C(NC(=O)c1ccccc1)C(=O)O` (stereo unspecified), the survivor count [9] is reported as 10 of 10, the survivor count [10] is reported as 10 of 10 and the survivor count [5] is reported as 9 of 10.

In the case of `CC(=O)OC1COC(NC(=O)N(CCCl)N=O)C(OC(C)=O)C1OC(C)=O` (stereo unspecified), the T/C (dose: 0.75 mg/kg/injection, schedule: Q01DX009 (ip), vehicle: saline with Tween-80) is reported as 136 % of control and the T/C (dose: 0.78 mg/kg/injection, schedule: Q01DX009 (ip), vehicle: saline with Tween-80) is reported as 134 % of control [9 of 10 alive].

With `CC(=O)NC1c2cc(Cl)ccc2-c2c(Cl)cc(Cl)cc21` (stereo unspecified) the survivor count [10] was 6 of 6.

For `CCC1(CC)OC2=C(CC(C#N)(C#N)C(C#N)(C#N)C2)O1`, the survivor count (dose: 25.0 mg/kg/injection, schedule: Q04DX003 (ip), vehicle: Klucel (hydroxypropylcellulose) (HPC)) was 10 of 10, the survivor count (dose: 50.0 mg/kg/injection, schedule: Q04DX003 (ip), vehicle: Klucel (hydroxypropylcellulose) (HPC)) was 7 of 10 and the survivor count (dose: 100.0 mg/kg/injection, schedule: Q04DX003 (ip), vehicle: Klucel (hydroxypropylcellulose) (HPC)) was 8 of 10 and 9 of 10. For the same compound, the survivor count (dose: 200.0 mg/kg/injection, schedule: Q04DX003 (ip), vehicle: Klucel (hydroxypropylcellulose) (HPC)) was 8 of 10 and the survivor count (dose: 400.0 mg/kg/injection, schedule: Q04DX003 (ip), vehicle: Klucel (hydroxypropylcellulose) (HPC)) was 7 of 10.

`Cc1cc(O)c2c(c1O)C(=O)c1cccc(O)c1C2=O` was tested, and the survivor count (dose: 3.0 mg/kg/injection, schedule: Q01DX009 (ip), vehicle: Klucel (hydroxypropylcellulose) (HPC)) was 5 of 10, the survivor count [11] was 0 of 10 and the survivor count [12] was 0 of 10.

In the case of `CCN(CC)Cc1c(C)cc2oc(=O)c3c(c2c1O)CCCC3`, the survivor count (dose: 128.0 mg/kg/injection, schedule: Q01DX009 (ip), vehicle: Klucel (hydroxypropylcellulose) (HPC)) is reported as 2 of 5.

For `NC(=O)CC(N)C(=O)O.[Cl-].[Cl-].[Cl-].[Cl-].[Pt+2]` (stereo unspecified), the T/C (dose: 0.78 mg/kg/injection, schedule: Q01DX009 (ip), vehicle: saline) was 135 % of control, the T/C (dose: 6.25 mg/kg/injection, schedule: Q01DX009 (ip), vehicle: saline) was 131 % of control and the T/C (dose: 12.5 mg/kg/injection, schedule: Q01DX009 (ip), vehicle: saline) was 127 % of control.

In the case of `CC(C)=CC(=O)OCC[N+](C)(C)C`, the survivor count (dose: 75.0 mg/kg/injection, schedule: Q01DX009 (ip), vehicle: saline) is reported as 0 of 10, the survivor count (dose: 150.0 mg/kg/injection, schedule: Q01DX009 (ip), vehicle: saline) is reported as 0 of 10 and the survivor count (dose: 300.0 mg/kg/injection, schedule: Q01DX009 (ip), vehicle: saline) is reported as 0 of 10.

For `COC(=O)N1C=Cc2ccccc2C1C#N` (stereo unspecified), the survivor count [10] was 0 of 10.

In the case of `Cc1cc(O)c(N=Nc2ccc(C(=O)O)cc2)cc1C`, the survivor count (dose: 400.0 mg/kg/injection, schedule: Q01DX009 (ip), vehicle: suspension in saline) is reported as 8 of 10.

`CCCC(=O)OCC1OC(n2cnc3c(=S)nc[nH]c32)C(OC(=O)CCC)C1OC(=O)CCC` (stereo unspecified) was tested, and the survivor count [9] was 9 of 10 and the survivor count [10] was 10 of 10.

With `Cc1ccc2c(c1)CC(C)([CH2][Hg][Cl])O2` (stereo unspecified) the survivor count [11] was 9 of 10, the survivor count (dose: 6.0 mg/kg/injection, schedule: Q04DX003 (ip), vehicle: Klucel (hydroxypropylcellulose) (HPC)) was 10 of 10 and the survivor count [12] was 6 of 10. The survivor count (dose: 12.0 mg/kg/injection, schedule: Q04DX003 (ip), vehicle: Klucel (hydroxypropylcellulose) (HPC)) was 9 of 10.

With `Cc1ccc(S(=O)(=O)N2CCC(O)(c3ccccc3)CC2)cc1` the survivor count (dose: 10.0 mg/kg/injection, schedule: Q01DX009 (ip), vehicle: Klucel (hydroxypropylcellulose) (HPC)) was 10 of 10, the survivor count (dose: 40.0 mg/kg/injection, schedule: Q01DX009 (ip), vehicle: Klucel (hydroxypropylcellulose) (HPC)) was 10 of 10 and the survivor count [3] was 10 of 10. For the same compound, the survivor count [4] was 10 of 10.

For `O=C(CCCN1CCC(n2c(=O)[nH]c3ccccc32)CC1)c1ccc(F)cc1`, the survivor count (dose: 1.56 mg/kg/injection, schedule: Q01DX009 (ip), vehicle: Klucel (hydroxypropylcellulose) (HPC)) was 9 of 10, the survivor count [13] was 10 of 10 and the survivor count [7] was 10 of 10. The survivor count [2] was 4 of 10 and 10 of 10, the survivor count [3] was 0 of 10 and 2 of 10 and the survivor count [4] was 0 of 10. For the same compound, the survivor count [8] was 0 of 10.

With `CCCCCCC(=O)NC1=C(N2CC2)C(=O)C(NC(=O)CCCCCC)=C(N2CC2)C1=O` the T/C [13] was 128 % of control [9 of 10 alive], the T/C [7] was 149 % of control [9 of 10 alive] and the T/C [1] was 127 % of control. The survivor count [1] was 4 of 10, the T/C [2] was 135 and 136 % of control [7 of 10 alive] and the survivor count [2] was 10 of 10. The survivor count [3] was 10 of 10 and the survivor count [4] was 3 of 10.

`O=C(Cn1cc(F)c(=O)[nH]c1=O)c1ccco1` was tested, and the survivor count [8] was 9 of 10.

`CCN(CC)CCNc1ccc([N+](=O)[O-])cc1[N+](=O)[O-]` was tested, and the survivor count (dose: 200.0 mg/kg/injection, schedule: Q04DX003 (ip), vehicle: saline with Tween-80) was 6 of 9.

With `CCC[CH2][Sn]1([CH2]CCC)[O]OC(c2ccc(C)cc2)[O]1` (stereo unspecified) the survivor count (dose: 3.0 mg/kg/injection, schedule: Q01DX009 (ip), vehicle: saline with Tween-80) was 8 of 10, the survivor count (dose: 6.25 mg/kg/injection, schedule: Q01DX009 (ip), vehicle: saline with Tween-80) was 10 of 10 and the survivor count (dose: 12.5 mg/kg/injection, schedule: Q01DX009 (ip), vehicle: saline with Tween-80) was 0 of 10. For the same compound, the survivor count (dose: 25.0 mg/kg/injection, schedule: Q01DX009 (ip), vehicle: saline with Tween-80) was 0 of 10.

`O=C(OC1CCCCCCC1)C(F)(F)F` was tested, and the T/C [4] was 125 % of control.
